The values that follow come from paper PMC10940091.

Chains of the proteins cited; added tags and fusions are not shown. Lines headed by an entry give the natural chain unless they say otherwise; changes in a name come on top.
UniProt Q9ULU4: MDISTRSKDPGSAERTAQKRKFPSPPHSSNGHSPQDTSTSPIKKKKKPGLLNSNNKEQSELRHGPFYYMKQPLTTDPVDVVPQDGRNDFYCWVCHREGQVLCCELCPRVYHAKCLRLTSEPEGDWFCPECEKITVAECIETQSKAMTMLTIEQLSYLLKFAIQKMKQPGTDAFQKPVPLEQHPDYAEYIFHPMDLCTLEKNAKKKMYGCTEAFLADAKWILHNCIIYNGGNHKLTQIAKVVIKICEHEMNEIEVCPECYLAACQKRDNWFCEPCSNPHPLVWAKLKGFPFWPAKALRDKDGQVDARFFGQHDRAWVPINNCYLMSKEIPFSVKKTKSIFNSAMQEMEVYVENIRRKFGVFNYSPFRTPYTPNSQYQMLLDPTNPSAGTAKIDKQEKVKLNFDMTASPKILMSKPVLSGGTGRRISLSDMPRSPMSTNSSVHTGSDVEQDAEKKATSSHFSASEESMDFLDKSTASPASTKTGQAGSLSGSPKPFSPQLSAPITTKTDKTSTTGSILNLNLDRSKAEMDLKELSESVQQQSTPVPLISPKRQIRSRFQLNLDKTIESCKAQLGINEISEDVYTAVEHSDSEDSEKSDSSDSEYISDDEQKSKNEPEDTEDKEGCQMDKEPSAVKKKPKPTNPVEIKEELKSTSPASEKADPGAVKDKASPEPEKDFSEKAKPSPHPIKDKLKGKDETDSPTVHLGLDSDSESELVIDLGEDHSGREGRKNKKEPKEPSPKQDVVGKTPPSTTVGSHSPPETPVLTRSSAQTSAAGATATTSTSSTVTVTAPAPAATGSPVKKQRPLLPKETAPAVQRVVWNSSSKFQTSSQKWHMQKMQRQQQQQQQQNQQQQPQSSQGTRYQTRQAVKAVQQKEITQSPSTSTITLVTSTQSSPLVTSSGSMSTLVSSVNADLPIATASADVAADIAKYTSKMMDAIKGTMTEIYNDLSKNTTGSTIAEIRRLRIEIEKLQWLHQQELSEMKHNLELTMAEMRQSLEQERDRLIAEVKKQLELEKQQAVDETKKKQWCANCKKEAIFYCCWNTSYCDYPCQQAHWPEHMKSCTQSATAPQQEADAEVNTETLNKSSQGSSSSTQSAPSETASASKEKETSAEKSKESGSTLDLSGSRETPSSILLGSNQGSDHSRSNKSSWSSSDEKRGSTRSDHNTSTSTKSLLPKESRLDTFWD
UniProt Q16236: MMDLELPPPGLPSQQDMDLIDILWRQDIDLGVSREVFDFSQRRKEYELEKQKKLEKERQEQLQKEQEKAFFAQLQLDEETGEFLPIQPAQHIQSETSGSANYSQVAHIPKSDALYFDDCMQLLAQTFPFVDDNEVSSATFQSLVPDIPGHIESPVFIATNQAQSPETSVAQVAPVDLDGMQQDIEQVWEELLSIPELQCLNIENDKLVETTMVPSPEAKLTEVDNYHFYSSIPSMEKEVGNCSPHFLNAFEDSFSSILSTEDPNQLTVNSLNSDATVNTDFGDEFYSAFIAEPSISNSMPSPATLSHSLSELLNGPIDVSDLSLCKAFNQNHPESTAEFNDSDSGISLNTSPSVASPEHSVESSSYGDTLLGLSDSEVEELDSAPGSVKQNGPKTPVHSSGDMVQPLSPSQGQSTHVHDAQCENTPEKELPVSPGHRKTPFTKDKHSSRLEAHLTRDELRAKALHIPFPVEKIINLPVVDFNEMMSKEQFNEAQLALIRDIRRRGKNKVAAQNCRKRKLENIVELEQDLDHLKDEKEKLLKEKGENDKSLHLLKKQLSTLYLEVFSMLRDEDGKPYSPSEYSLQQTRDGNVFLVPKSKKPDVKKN

These are yes or no findings as the source states them, for the method shown. In cells and extracts the contact can be indirect. For part of these data: A result given as binding can be weak or reduced; the word gives no strength.

What all share (test): co-IP; HEK293T cells cotransfected with Flag-ZMYND8 and NRF2-ETGE/KKDD-V5 constructs; NETN lysis buffer; IP with anti-Flag antibody or IgG, protein A/G magnetic beads, 4°C; immunoblot with anti-V5 and anti-Flag
In general terms: Immunoblotting shows a protein as a band on a membrane.

The target of test [1] is C-1-deleted (ΔC-1) Flag-ZMYND8 (UniProt Q9ULU4).
In test [2] the target is C-2-deleted (ΔC-2) Flag-ZMYND8 (UniProt Q9ULU4).
Test [3] deals with C-3-deleted (ΔC-3) Flag-ZMYND8 (UniProt Q9ULU4).
Test [4] addresses MYND-deleted (ΔMYND) Flag-ZMYND8 (UniProt Q9ULU4).
Test [5] deals with PBP domain-deleted (ΔPBP) Flag-ZMYND8 (UniProt Q9ULU4).
For test [6], the target named is interfragment-deleted (ΔInter) Flag-ZMYND8 (UniProt Q9ULU4).

Consider “FL NRF2-V5 with ETGE mutation into KKDD (NRF2-ETGE/KKDD-V5) (from UniProt Q16236)”, for which the binding result is on record as “binds” in test [1]; “binds” in test [2]; “binds” in test [3]; “binds” in test [4]; “no binding” in test [5]; “no binding” in test [6].
